# Measurements reported in PubChem BioAssay AID1224828 (NIAID, 2016).
# Aim: 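Find genes required for NF-kappaB p65 moving into the nucleus after LPS in mouse macrophages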 (primary screen)
# Cell system: mouse RAW264.7 G9 macrophage reporter cells (GFP-p65, Tnf promoter-mCherry)
# Reagents: siRNA pool against mouse genes, 100 nM
# Timing: 2 days siRNA transfection, then 40 min LPS before fixation
# Conditions: LPS (Salmonella minnesota R595) at 10 ng/ml
# Read-out: 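Imaged p65 nuclear translocation ratio, normalised to the plate median, converted to robust z-scores and averaged across two replicates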
# Reading the numbers: p65 translocation robust z-score: higher = more nuclear NF-kappaB p65 after LPS than the plate median; nuclear/cytoplasmic p65 ratio: higher = more nuclear NF-kappaB p65
# Active means: 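Active if robust z is above 3.3 (negative regulators) or below -1.56, the Tlr4 control median (positive regulators); activity score 50 or more; control wells not called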
# Calls: active = hit (p65 shift raised or lowered); inactive = no clear change
# The whole screen tested about 17,000 reagents; below is an unselected part. Of all reagents, 762 (4.5%) are marked active. 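Active calls include both raised and lowered p65 entry, mostly lowered; wells with fewer than 50 cells lack a z-score.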 Raw values are not corrected between plates. Unmarked entries are inactive. The numbers tell different reagents against one gene apart. Reagent sequences are not shown.
gene knocked down,pool no.,p65 translocation robust z-score,"nuclear/cytoplasmic p65 ratio, rep 1","nuclear/cytoplasmic p65 ratio, rep 2",low cell count flag
Ncam2,1,0.41,1.48,1.41,enough cells to score
Ninl,1,-0.23,1.42,1.28,enough cells to score
Comp,1,2.33,1.93,1.56,enough cells to score
Mrps30,1,-0.2,1.48,1.26,enough cells to score
Kcna6,1,0.16,1.5,1.39,enough cells to score
Ppt1,1,-0.14,1.47,1.4,enough cells to score
Ppt1,2,,0,1.41,fewer than 50 cells per well; well left out of scoring
Or11a4,1,2.05,1.68,1.51,enough cells to score
Tbr1,1,0.99,1.65,1.66,enough cells to score
Cdc42ep4,1,-1.12,1.43,1.59,enough cells to score
Dao,1,-0.44,1.68,1.3,enough cells to score
Cd2ap,1,0.71,1.58,1.46,enough cells to score
Slc22a5,1,-0.12,1.51,1.49,enough cells to score
Best1,1,-0.81,1.42,1.36,enough cells to score
Mapk3,1,0.09,1.73,1.37,enough cells to score
Or4a66,1,-1.12,1.56,1.35,enough cells to score
Maml3,1,-1.12,1.22,1.43,enough cells to score
Bco2,1,1.75,1.68,1.77,enough cells to score
Rabgap1,1,0.2,1.41,1.23,enough cells to score
Or13a18,1,,1.25,1.37,fewer than 50 cells per well; well left out of scoring
Dnai7,1,0.52,1.69,1.84,enough cells to score
Adprh,1,0.21,1.55,1.74,enough cells to score
Dusp9,1,-0.72,1.44,1.23,enough cells to score
Or14j6,1,0.53,1.71,1.47,enough cells to score
Upk3b,1,0.41,1.5,1.23,enough cells to score
Pqbp1,1,,1.47,1.32,fewer than 50 cells per well; well left out of scoring
Tmem252,1,,1.46,1.44,fewer than 50 cells per well; well left out of scoring
St3gal1,1,-1.16,1.39,1.38,enough cells to score

3 entries already listed, sorted by “nuclear/cytoplasmic p65 ratio, rep 2”, high to low:
gene knocked down,pool no.,p65 translocation robust z-score,"nuclear/cytoplasmic p65 ratio, rep 1","nuclear/cytoplasmic p65 ratio, rep 2",low cell count flag
Slc22a5,1,-0.12,1.51,1.49,enough cells to score
Mapk3,1,0.09,1.73,1.37,enough cells to score
Best1,1,-0.81,1.42,1.36,enough cells to score

Further entries:
gene knocked down,pool no.,p65 translocation robust z-score,"nuclear/cytoplasmic p65 ratio, rep 1","nuclear/cytoplasmic p65 ratio, rep 2",low cell count flag
Rtn4r,1,-0.72,1.42,1.41,enough cells to score
Faap24,1,,1.18,1.47,fewer than 50 cells per well; well left out of scoring
Trim3,1,,1.32,1.26,fewer than 50 cells per well; well left out of scoring
Mboat2,1,,1.21,1.5,fewer than 50 cells per well; well left out of scoring
Cpt1c,1,-0.09,1.47,1.87,enough cells to score
Dok2,1,0.15,1.52,1.38,enough cells to score
Or8c15,1,-0.85,1.33,1.17,enough cells to score
Rita1,1,-0.04,1.41,1.56,enough cells to score
Snx29,1,,1.42,1.84,fewer than 50 cells per well; well left out of scoring
Trpc2,1,-0.56,1.32,1.13,enough cells to score
Mib1,1,2.28,1.72,1.65,enough cells to score
Rnf103,1,0.89,1.52,1.33,enough cells to score
Dusp10,1,-0.1,1.8,1.27,enough cells to score
Atxn3,1,-0.42,1.23,1.43,enough cells to score
Cul5,1,0.13,1.56,1.34,enough cells to score
Man1c1,1,-0.44,1.7,1.44,enough cells to score
Ccr1l1,1,-0.01,1.59,1.78,enough cells to score
Cryba4,1,-1.3,1.32,1.2,enough cells to score
Ttc16,1,1.08,1.4,1.56,enough cells to score
Arhgap9,1,0.16,1.68,1.48,enough cells to score
Enox2,1,0.9,1.63,2.01,enough cells to score
Abca5,1,0.13,1.56,1.77,enough cells to score
Upk1b,1,,1.51,1.44,fewer than 50 cells per well; well left out of scoring
2310022A10Rik,1,,1.43,1.36,fewer than 50 cells per well; well left out of scoring
Mrps34,1,0.69,1.95,1.64,enough cells to score
Ank,1,-0.13,1.59,1.61,enough cells to score
H1f1,1,0.7,1.69,1.66,enough cells to score
Myo1g,1,-0.27,1.65,1.63,enough cells to score
Klhl1,1,-0.75,1.43,1.31,enough cells to score
Il1r2,1,-0.42,1.38,1.36,enough cells to score
Sox1,1,-1.16,1.22,1.14,enough cells to score
